These are yes or no findings as the source states them, for the method shown. In cells and extracts the contact can be indirect. These calls come from enrichment with a bait or labelling near it, and not all partners need be listed.
B1: Rab3IP/Rabin8 (protein, UniProt Q96QF0 1-476)
chain: MGLKKMKGLSYDEAFAMANDPLEGFHEVNLASPTSPDLLGVYESGTQEQTTSPSVIYRPHPSALSSVPIQANALDVSELPTQPVYSSPRRLNCAEISSISFHVTDPAPCSTSGVTAGLTKLTTRKDNYNAEREFLQGATITEACDGSDDIFGLSTDSLSRLRSPSVLEVREKGYERLKEELAKAQRELKLKDEECERLSKVRDQLGQELEELTASLFEEAHKMVREANIKQATAEKQLKEAQGKIDVLQAEVAALKTLVLSSSPTSPTQEPLPGGKTPFKKGHTRNKSTSSAMSGSHQDLSVIQPIVKDCKEADLSLYNEFRLWKDEPTMDRTCPFLDKIYQEDIFPCLTFSKSELASAVLEAVENNTLSIEPVGLQPIRFVKASAVECGGPKKCALTGQSKSCKHRIKLGDSSNYYYISPFCRYRITSVCNFFTYIRYIQQGLVKQQDVDQMFWEVMQLRKEMSLAKLGYFKEEL
B2: D-AKAP2/AKAP10 (protein, UniProt O43572 29-662)
chain: KVKGKEQEKTSDVKSIKASISVHSPQKSTKNHALLEAAGPSHVAINAISANMDSFSSSRTATLKKQPSHMEAAHFGDLGRSCLDYQTQETKSSLSKTLEQVLHDTIVLPYFIQFMELRRMEHLVKFWLEAESFHSTTWSRIRAHSLNTVKQSSLAEPVSPSKKHETTASFLTDSLDKRLEDSGSAQLFMTHSEGIDLNNRTNSTQNHLLLSQECDSAHSLRLEMARAGTHQVSMETQESSSTLTVASRNSPASPLKELSGKLMKSIEQDAVNTFTKYISPDAAKPIPITEAMRNDIIARICGEDGQVDPNCFVLAQSIVFSAMEQEHFSEFLRSHHFCKYQIEVLTSGTVYLADILFCESALFYFSEYMEKEDAVNILQFWLAADNFQSQLAAKKGQYDGQEAQNDAMILYDKYFSLQATHPLGFDDVVRLEIESNICREGGPLPNCFTTPLRQAWTTMEKVFLPGFLSSNLYYKYLNDLIHSVRGDEFLGGNVSLTAPGSVGPPDESHPGSSDSSASQSSVKKASIKILKNFDEAIIVDAASLDPESLYQRTYAGKMTFGRVSDLGQFIRESEPEPDVRKSKGSMFSQAMKKWVQGNTDEAQEELAWKIAKMIVSDIMQQAQYDQPLEKSTKL
B3: TBC1D12 (protein, UniProt O60347 1-775)
chain: MVGPEDAGACSGRNPKLLPVPAPDPVGQDRKVIRATGGFGGGVGAVEPPEEADEEEEADEEEETPPRQLLQRYLAAAGEQLEPGLCYCPLPAGQAGAPPPSAAPRSDACLLGSGSKHRGAEVADGRAPRHEGMTNGDSGFLPGRDCRDLEEARGLARAGGRESRRRRPYGRLRLEGPGDEDADGAGSPSDWASPLEDPLRSCCLVAADAQEPEGAGSDSGDSPASSCSSSEDSEQRGVGAGGPEEGAPPATSAERTNGGAEPRLGFSDIHFNSRNTFQVSRGQSARDHLPPAGPPVPLPAAEQGPAGASARARRSGGFADFFTRNLFPKRTKELKSVVHSAPGWKLFGKVPPRENLQKTSKIIQQEYEARTGRTCKPPPQSSRRKNFEFEPLSTTALILEDRPSNLPAKSVEEALRHRQEYDEMVAEAKKREIKEAHKRKRIMKERFKQEENIASAMVIWINEILPNWEVMRSTRRVRELWWQGLPPSVRGKVWSLAVGNELNITPELYEIFLSRAKERWKSFSETSSENDTEGVSVADREASLELIKLDISRTFPSLYIFQKGGPYHDVLHSILGAYTCYRPDVGYVQGMSFIAAVLILNLEEADAFIAFANLLNKPCQLAFFRVDHSMMLKYFATFEVFFEENLSKLFLHFKSYSLTPDIYLIDWIFTLYSKSLPLDLACRVWDVFCRDGEEFLFRTGLGILRLYEDILLQMDFIHIAQFLTKLPEDITSEKLFSCIAAIQMQNSTKKWTQVFASVMKDIKEGDKNSSPALKS
B4: TBC1D15 (protein, UniProt Q8TC07 1-691)
chain: MAAAGVVSGKIIYEQEGVYIHSSCGKTNDQDGLISGILRVLEKDAEVIVDWRPLDDALDSSSILYARKDSSSVVEWTQAPKERGHRGSEHLNSYEAEWDMVNTVSFKRKPHTNGDAPSHRNGKSKWSFLFSLTDLKSIKQNKEGMGWSYLVFCLKDDVVLPALHFHQGDSKLLIESLEKYVVLCESPQDKRTLLVNCQNKSLSQSFENLLDEPAYGLIQAGLLDRRKLLWAIHHWKKIKKDPYTATMIGFSKVTNYIFDSLRGSDPSTHQRPPSEMADFLSDAIPGLKINQQEEPGFEVITRIDLGERPVVQRREPVSLEEWTKNIDSEGRILNVDNMKQMIFRGGLSHALRKQAWKFLLGYFPWDSTKEERTQLQKQKTDEYFRMKLQWKSISQEQEKRNSRLRDYRSLIEKDVNRTDRTNKFYEGQDNPGLILLHDILMTYCMYDFDLGYVQGMSDLLSPLLYVMENEVDAFWCFASYMDQMHQNFEEQMQGMKTQLIQLSTLLRLLDSGFCSYLESQDSGYLYFCFRWLLIRFKREFSFLDILRLWEVMWTELPCTNFHLLLCCAILESEKQQIMEKHYGFNEILKHINELSMKIDVEDILCKAEAISLQMVKCKELPQAVCEILGLQGSEVTTPDSDVGEDENVVMTPCPTSAFQSNALPTLSASGARNDSPTQIPVSSDVCRLTPA
B5: Rabenosyn-5 (protein, UniProt Q9H1K0 1-784)
chain: MASLDDPGEVREGFLCPLCLKDLQSFYQLHSHYEEEHSGEDRDVKGQIKSLVQKAKKAKDRLLKREGDDRAESGTQGYESFSYGGVDPYMWEPQELGAVRSHLSDFKKHRAARIDHYVVEVNKLIIRLEKLTAFDRTNTESAKIRAIEKSVVPWVNDQDVPFCPDCGNKFSIRNRRHHCRLCGSIMCKKCMELISLPLANKLTSASKESLSTHTSPSQSPNSVHGSRRGSISSMSSVSSVLDEKDDDRIRCCTHCKDTLLKREQQIDEKEHTPDIVKLYEKLRLCMEKVDQKAPEYIRMAASLNAGETTYSLEHASDLRVEVQKVYELIDALSKKILTLGLNQDPPPHPSNLRLQRMIRYSATLFVQEKLLGLMSLPTKEQFEELKKKRKEEMERKRAVERQAALESQRRLEERQSGLASRAANGEVASLRRGPAPLRKAEGWLPLSGGQGQSEDSDPLLQQIHNITSFIRQAKAAGRMDEVRTLQENLRQLQDEYDQQQTEKAIELSRRQAEEEDLQREQLQMLRERELEREREQFRVASLHTRTRSLDFREIGPFQLEPSREPRTHLAYALDLGSSPVPSSTAPKTPSLSSTQPTRVWSGPPAVGQERLPQSSMPQQHEGPSLNPFDEEDLSSPMEEATTGPPAAGVSLDPSARILKEYNPFEEEDEEEEAVAGNPFIQPDSPAPNPFSEEDEHPQQRLSSPLVPGNPFEEPTCINPFEMDSDSGPEAEEPIEEELLLQQIDNIKAYIFDAKQCGRLDEVEVLTENLRELKHTLAKQKGGTD
B6: TSC1 (protein, UniProt Q92574 1-1164)
chain: MAQQANVGELLAMLDSPMLGVRDDVTAVFKENLNSDRGPMLVNTLVDYYLETSSQPALHILTTLQEPHDKHLLDRINEYVGKAATRLSILSLLGHVIRLQPSWKHKLSQAPLLPSLLKCLKMDTDVVVLTTGVLVLITMLPMIPQSGKQHLLDFFDIFGRLSSWCLKKPGHVAEVYLVHLHASVYALFHRLYGMYPCNFVSFLRSHYSMKENLETFEEVVKPMMEHVRIHPELVTGSKDHELDPRRWKRLETHDVVIECAKISLDPTEASYEDGYSVSHQISARFPHRSADVTTSPYADTQNSYGCATSTPYSTSRLMLLNMPGQLPQTLSSPSTRLITEPPQATLWSPSMVCGMTTPPTSPGNVPPDLSHPYSKVFGTTAGGKGTPLGTPATSPPPAPLCHSDDYVHISLPQATVTPPRKEERMDSARPCLHRQHHLLNDRGSEEPPGSKGSVTLSDLPGFLGDLASEEDSIEKDKEEAAISRELSEITTAEAEPVVPRGGFDSPFYRDSLPGSQRKTHSAASSSQGASVNPEPLHSSLDKLGPDTPKQAFTPIDLPCGSADESPAGDRECQTSLETSIFTPSPCKIPPPTRVGFGSGQPPPYDHLFEVALPKTAHHFVIRKTEELLKKAKGNTEEDGVPSTSPMEVLDRLIQQGADAHSKELNKLPLPSKSVDWTHFGGSPPSDEIRTLRDQLLLLHNQLLYERFKRQQHALRNRRLLRKVIKAAALEEHNAAMKDQLKLQEKDIQMWKVSLQKEQARYNQLQEQRDTMVTKLHSQIRQLQHDREEFYNQSQELQTKLEDCRNMIAELRIELKKANNKVCHTELLLSQVSQKLSNSESVQQQMEFLNRQLLVLGEVNELYLEQLQNKHSDTTKEVEMMKAAYRKELEKNRSHVLQQTQRLDTSQKRILELESHLAKKDHLLLEQKKYLEDVKLQARGQLQAAESRYEAQKRITQVFELEILDLYGRLEKDGLLKKLEEEKAEAAEAAEERLDCCNDGCSDSMVGHNEEASGHNGETKTPRPSSARGSSGSRGGGGSSSSSSELSTPEKPPHQRAGPFSSRWETTMGEASASIPTTVGSLPSSKSFLGMKARELFRNKSESQCDEDGMTSSLSESLKTELGKDLGVEAKIPLNLDGPHPSPPTPDSVGQLHIMDYNETHHEHS
B7: RPS6KC1 (protein, UniProt Q96S38 1-1066)
chain: MTSYRERSADLARFYTVTEPQRHPRGYTVYKVTARVVSRRNPEDVQEIIVWKRYSDFKKLHKELWQIHKNLFRHSELFPPFAKGIVFGRFDETVIEERRQCAEDLLQFSANIPALYNSKQLEDFFKGGIINDSSELIGPAEAHSDSLIDTFPECSTEGFSSDSDLVSLTVDVDSLAELDDGMASNQNSPIRTFGLNLSSDSSALGAVASDSEQSKTEEERESRSLFPGSLKPKLGKRDYLEKAGELIKLALKKEEEDDYEAASDFYRKGVDLLLEGVQGESSPTRREAVKRRTAEYLMRAESISSLYGKPQLDDVSQPPGSLSSRPLWNLRSPAEELKAFRVLGVIDKVLLVMDTRTEQTFILKGLRKSSEYSRNRKTIIPRCVPNMVCLHKYIISEESVFLVLQHAEGGKLWSYISKFLNRSPEESFDIKEVKKPTLAKVHLQQPTSSPQDSSSFESRGSDGGSMLKALPLKSSLTPSSQDDSNQEDDGQDSSPKWPDSGSSSEEECTTSYLTLCNEYGQEKIEPGSLNEEPFMKTEGNGVDTKAIKSFPAHLAADSDSPSTQLRAHELKFFPNDDPEAVSSPRTSDSLSRSKNSPMEFFRIDSKDSASELLGLDFGEKLYSLKSEPLKPFFTLPDGDSASRSFNTSESKVEFKAQDTISRGSDDSVPVISFKDAAFDDVSGTDEGRPDLLVNLPGELESTREAAAMGPTKFTQTNIGIIENKLLEAPDVLCLRLSTEQCQAHEEKGIEELSDPSGPKSYSITEKHYAQEDPRMLFVAAVDHSSSGDMSLLPSSDPKFQGLGVVESAVTANNTEESLFRICSPLSGANEYIASTDTLKTEEVLLFTDQTDDLAKEEPTSLFQRDSETKGESGLVLEGDKEIHQIFEDLDKKLALASRFYIPEGCIQRWAAEMVVALDALHREGIVCRDLNPNNILLNDRGHIQLTYFSRWSEVEDSCDSDAIERMYCAPEVGAITEETEACDWWSLGAVLFELLTGKTLVECHPAGINTHTTLNMPECVSEEARSLIQQLLQFNPLERLGAGVAGVEDIKSHPFFTPVDWAELMR

By UniProt entry, the sequences of proteins in these tests, tags left out. Where a name states a change or a piece, a line headed by the entry shows the natural chain unless it says otherwise. Chains listed by the source or under a name are the forms on record and can include a tag or linker.
Rab5A(Q79L)-BirA*-HA-MAO (P20339, form named): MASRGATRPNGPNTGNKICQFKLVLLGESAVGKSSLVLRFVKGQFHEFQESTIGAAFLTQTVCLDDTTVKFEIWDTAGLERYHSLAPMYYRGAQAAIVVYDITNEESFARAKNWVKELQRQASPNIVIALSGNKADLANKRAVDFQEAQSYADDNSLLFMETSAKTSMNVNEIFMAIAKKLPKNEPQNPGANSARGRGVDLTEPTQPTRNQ

Each binder was assayed against Rab11A(Q69L)-BirA*-HA-MAO (human) (assay: proximity labelling; MitoID: GTPase-BirA*-HA-MAO chimera on mitochondria of transiently transfected HEK293T cells, 50 uM biotin 18 h, streptavidin beads, mass spectrometry, biological triplicates; hits by WD scores and volcano plots against the GDP-locked forms).

binding | Binder
binds | B1
binds | B2
binds | B3

These binders were tested against Rab5A(Q79L)-BirA*-HA-MAO (human) (UniProt P20339) in the same assay as above.

binding | Binder
binds | B4
binds | B5
binds | B6
binds | B7

— paper PMC6639074
